Measurements from “University of Dundee, Small-Polar-MMV Screening Library” (2021), ChEMBL document CHEMBL3988442.

Amino acid sequences for entries named in this document (tags omitted). Residues count along the entry.
UniProt A4I591, 1-473: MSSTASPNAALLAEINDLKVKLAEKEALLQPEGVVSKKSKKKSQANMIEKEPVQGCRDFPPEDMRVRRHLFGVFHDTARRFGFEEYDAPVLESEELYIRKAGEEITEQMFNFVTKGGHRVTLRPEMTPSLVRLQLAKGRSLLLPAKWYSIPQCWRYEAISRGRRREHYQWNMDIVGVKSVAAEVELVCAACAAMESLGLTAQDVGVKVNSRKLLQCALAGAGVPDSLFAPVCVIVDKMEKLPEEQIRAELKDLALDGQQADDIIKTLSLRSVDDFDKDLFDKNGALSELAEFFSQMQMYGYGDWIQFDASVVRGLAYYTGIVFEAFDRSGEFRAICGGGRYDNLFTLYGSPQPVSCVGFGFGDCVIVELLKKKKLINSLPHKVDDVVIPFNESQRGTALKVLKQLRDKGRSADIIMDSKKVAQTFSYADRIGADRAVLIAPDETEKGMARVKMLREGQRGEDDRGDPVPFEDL

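Histidine-tRNA ligase, Leishmania infantum (UniProt A4I591). Enzyme assay of histidyl-tRNA synthetase; the read-out is not stated. Tested at 30 µM. Higher reads as stronger inhibition (inferred: compounds with an IC50 in retests scored well above the rest). The assay is labelled LdHisRS but filed under L. infantum. Size under these conditions: about 69,000 compounds, about 410 of them at 50% or above in at least one test.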

Results are given as percent effect. The controls that fix the scale are not given in the record; negative values are as filed. The compounds are a random part of those screened.

SMILES	percent effect
Cc1cc2c(cc1Cl)C=CC1(CCN(CC(=O)N3CCOCC3)CC1)O2	4.027
Cc1ccn(-c2ccc(C(=O)N3CCCC(C(N)=O)C3)cc2)n1 (stereo not given)	-25.84
CCN(C)C(=O)c1ccc(N(C)Cc2cc(-c3ccncc3)no2)nc1	8.065
CNC(=O)[C@H]1C[C@@H]2CN(S(=O)(=O)c3cccc(C)c3)C[C@@H]2N1C	11.43
CC(C)c1nnc2ccc(N3CCCC(C(=O)Nc4nccs4)C3)nn12 (stereo not given)	10.53
CCC(Nc1nnnn1-c1ccccc1)C(=O)NC1CCSCC1 (stereo not given)	14.53
O=C(CN1CCCC1Cn1cncn1)Nc1nccs1 (stereo not given)	8.642
CCn1nc(C)c2c1cnn2CCNS(=O)(=O)c1cccs1	16.05
Cc1nn(C)c(C)c1C1CCCN1CC(=O)Nc1ccncc1 (stereo not given)	0
CCNC(=O)COc1ccc(C(=O)NC(C)CCc2ccco2)cc1 (stereo not given)	-91.78
Cc1cc(F)ccc1N1CCCC(NC2CCOCC2)C1=O (stereo not given)	11.5
CCn1ncc2c1CCCC2NCc1ccccc1N1CCOCC1 (stereo not given)	7.826
CCS(=O)(=O)NCCNCc1ccc(Cl)c2cccnc12	10.45
Cc1csc(CNC(=O)NCC(O)c2ccc(F)cc2F)n1 (stereo not given)	-9.589
Cc1ccccc1CN1CCC(NCC2CNc3ccnn3C2)CC1 (stereo not given)	22.64
O=C(c1cccc(S(=O)(=O)NCCCn2cccn2)c1)N1CCOCC1	5.6
O=C(CN1CCCNC1=O)N(Cc1ccccc1)CC(F)F	3.03
O=C(c1cccc2c1OCO2)N1CCCC(n2ccnc2)C1 (stereo not given)	8.772
CCN(CCCNCc1c(C)nn(C)c1N(C)C)S(C)(=O)=O	10.19
Cc1oncc1C(=O)N1CC[C@H]2[C@H](CO[C@@H]2CNS(C)(=O)=O)C1	28.57
COc1c(CNC2CCCOc3ccc(F)cc32)c(C(C)C)nn1C (stereo not given)	16.36
CCn1nc(C)c2nc(C)nc(NCCCn3cccn3)c21	15.52
Cc1ccc2c(n1)N(CC1CC1)CCN(Cc1ccco1)C2	17.54
OC1(c2ccccc2F)CCN(Cc2ccccc2N2CCCC2)CC1	2.837
CC(NC(=O)COc1ccc(F)cc1)c1nnc2n1CCCCC2 (stereo not given)	9.524
Cc1nnc(CN2CCC3(CCC(=O)N(C4CC4)C3)CC2)o1	21.98
O=C(NCCn1ccnc1)N1CCCC1c1ccncc1 (stereo not given)	21.3
O=C(NC[C@H]1OC[C@@H](NCc2ccccc2F)[C@@H]1O)c1ccc(F)cc1	25
c1cnc(N2C[C@H]3CCC[C@@H](CN4CCCC4)[C@H]3C2)nc1	27.18
CN1CCCC(c2nnc3n2CCN(S(=O)(=O)c2ccccc2Cl)C3)C1 (stereo not given)	8.633
CC(C)N1CCC2(CC1)CC(=O)N(Cc1cc(F)cc(F)c1)C2	-4.494
CN1CCN(Cc2ccccc2CNC(=O)c2cc(Br)ccc2F)CC1	23.29
O=C1COc2c(cccc2C(=O)N2CCCC(n3cccn3)C2)N1 (stereo not given)	0.8772
Cc1n[nH]c(C)c1C1COCCN1C(=O)Cc1cccc(F)c1 (stereo not given)	0
CN1C[C@@H]2CN(C(=O)NCc3ccccc3)CCC[C@]2(C(=O)O)C1	16
Cn1cc(C2COC3(CCN(C(=O)Cc4ccccc4)CC3)C2)cn1 (stereo not given)	15.84
CN(Cc1noc(C(C)(C)C)n1)CC1CCN(CCO)CC1	15.07
CCN1CC[C@@H]2OC[C@H](C(=O)NCc3cccs3)C[C@@H]2C1	17.27
Cc1csc(NC(=O)CN(C)CC2CCCN2c2cccnn2)n1 (stereo not given)	19.23
Cc1ccc(O)c(CN2CCCCC2CCN2CCOCC2)c1 (stereo not given)	8.434
CO[C@H]1C[C@@H](O)C12CCN(C(=O)CCCOc1ccccc1)CC2	9.524
Cn1c(C2CC2)nc2c1CCN(CC(=O)Nc1ccncc1)C2	7.143
Cn1nccc1C(=O)N1CCOC(Cc2ccc(Cl)cc2)C1 (stereo not given)	-1.053
CCCc1nnsc1C(=O)NCC1CCN(S(C)(=O)=O)CC1	21.15
CN(C)C(=O)c1ccc(CNC(=O)NCCN(C)C2CCCC2)cc1	19.05
Cn1nccc1CCC(=O)N1CCC(c2cnccn2)CC1	13.68
CN(C(=O)CN1CCCC1Cc1ccccc1)c1ccccc1 (stereo not given)	16.96
O=S(=O)(c1cccc(F)c1)N1C[C@@H]2CC[C@H](C1)N(Cc1ccccc1)C2	23.66
COc1ccc(CN2CCC3(CC2)CCN(CC(=O)N(C)C)C3=O)cc1	7.692
COCCN(Cc1ccccn1)C(=O)CC1OCCc2sccc21 (stereo not given)	7.692
Cc1cn2c(=O)c(-c3ccnc(N[C@@H](C)CO)n3)cnc2s1	20
COCCNC(=O)[C@@H]1CC[C@@H]2[C@@H](CCN2c2ncc(F)cn2)O1	16.67
CC1CCC(NC(=O)Nc2ccc(CC(=O)N(C)C)cc2)CC1 (stereo not given)	13.21
O=S1(=O)COCCN1Cc1ccc(Cl)c(Cl)c1	20.22
CCc1ccc(OCC(O)CN2CCN(S(C)(=O)=O)CC2)cc1 (stereo not given)	-2.667
CN(Cc1ccco1)C(=O)Nc1ccc(=O)n(C)c1	102.1
CSc1ccc(CNC2CCN(CCc3ccncc3)CC2)cc1	9.091
N#Cc1cccc(CN2C[C@@H]3CN(c4ncccn4)C[C@@H]3C2)c1	13.51
NC(=O)Cn1nc(-c2ccccc2F)ccc1=O	6.522
O=C(CCCOc1ccccc1Cl)N1CCCC(n2cncn2)C1 (stereo not given)	17.02
CCn1nc2c(cc1=O)CN(c1nc3ccccc3s1)CC2	72.73
CCCc1nc(N2CCCCCC2)c2c(n1)c(C)nn2CC	17.24
CCn1cc(CNCCNc2ncc(Cl)cc2Cl)cn1	-1.036
Cn1ccnc1CNC(=O)c1ccnc(C2CCNCC2)c1	8.451
CNc1nc(N2CCN(C)C(CCO)C2)nc2c1CCC2 (stereo not given)	17.11
CCNC(c1cccnc1)c1ccc(F)c(F)c1 (stereo not given)	2.703
CNC(=O)c1sc2ccccc2c1CC1CCCN1Cc1cnc(C)s1 (stereo not given)	23.19
CC(C)Nc1cc(-c2c[nH]nc2C2CCN(C(=O)C3CCC3)C2)ccn1 (stereo not given)	12.68
O=C(Cc1ccc(F)cc1Cl)N1C[C@@H](CN2CCC(O)CC2)[C@@H](CO)C1	-50.67
Cc1cnccc1CN1C[C@@H](O)[C@H](Oc2ccccc2)C1	2.778
Fc1cccc(OC2CCN(CCn3cc4ccccc4n3)CC2)c1	1.205
Cn1cnc2c1CCN(Cc1cccc(C(N)=O)c1)C2	-4.255
Cc1nn(C)cc1CN(C)C(=O)c1cccnc1	19.47
CC1(C)CN(C(=O)NCCc2ccn(-c3ccccc3)n2)CCO1	2.667
COc1ccc(CNC(=O)NC2CCN(CC3CCCC3)CC2)cn1	14.29
CNc1cccc(C2CN(C(=O)CNS(C)(=O)=O)CCO2)n1 (stereo not given)	9.859
Cc1cccc2ncnc(N3CCOC(C)C3)c12 (stereo not given)	-3.896
CC(C)c1cc(C(=O)N2CCCN(Cc3ccccc3)CC2)n[nH]1	16.39
Cc1n[nH]c(C)c1NC(=O)CN1CCc2c(nc(C3CC3)n2C)C1	2.74
CC(O)(CCc1ccccc1)CNC(=O)c1cccs1 (stereo not given)	19.13
COCc1cncc2c1CCN(Cc1cnn(C)c1)C2	12.33